Measured values: patent US11564923B2, “Compounds and pharmaceutical compositions thereof for the treatment of inflammatory disorders” (Galapagos NV, priority 2017, dated 2023)
Where a name gives a salt, the structure may show the parent alone.

Protein sequences, listed by entry. Tags and fused reporters are not part of them. Residues count along the entry.
UniProt P52333, 781-1124: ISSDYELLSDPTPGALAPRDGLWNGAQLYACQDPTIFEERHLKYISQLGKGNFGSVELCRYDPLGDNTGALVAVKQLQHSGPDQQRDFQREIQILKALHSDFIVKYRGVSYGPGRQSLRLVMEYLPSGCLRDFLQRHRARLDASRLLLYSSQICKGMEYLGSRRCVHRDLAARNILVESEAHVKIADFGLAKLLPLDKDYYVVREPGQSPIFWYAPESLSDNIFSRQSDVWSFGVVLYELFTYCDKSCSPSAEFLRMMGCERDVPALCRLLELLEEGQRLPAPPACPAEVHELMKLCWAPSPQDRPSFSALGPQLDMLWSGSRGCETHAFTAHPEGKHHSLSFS

Biological target: Recombinant human JAK3 catalytic domain (amino acids 781-1124) (Homo sapiens, UniProt P52333)
Experiment: JAK3 inhibition assay
Assay type: biochemical
Procedure: After 45 min at 30° C., reactions are stopped by adding 25 μL/well of 150 mM phosphoric acid. […] Plates are washed 6 times with 300 μL per well of a 75 mM phosphoric acid solution and the bottom of the plates is sealed. […] Kinase activity is calculated by subtracting counts per min (cpm) obtained in the presence of a positive control inhibitor (10 μM staurosporine) from cpm obtained in the presence of vehicle. The ability of a test compound to inhibit this activity (or percentage inhibition) is determined as: […]
cpm test compound=cpm determined for sample with test compound present cpm control=cpm determined for sample with positive control inhibitor cpm vehicle=cpm determined in the presence of vehicle
Dose dilution series were prepared for the compounds enabling the testing of dose-response effects in the JAK3 assay and the calculation of the IC50 for each compound. Each compound is routinely tested at concentration of 20 μM followed by a 1/5 serial dilution, 10 points in a final concentration of 1% DMSO.

- IC50: 368 nM
SMILES: Cc1cc(C#N)ncc1Oc1cc(Nc2ccc(CN(C)CCN(C)C)cn2)c2ncn(C)c2n1 [Compound 83, 5-[7-[[5-[[2-(dimethylamino)ethyl-methylamino]methyl]pyridin-2-yl]amino]-3-methylimidazo[4,5-b]pyridin-5-yl]oxy-4-methylpyridine-2-carbonitrile formate salt]
